Measured values as given in patent US10335608B2, “Photodynamic compounds and methods for activating them using ionizing radiation and/or other electromagnetic radiation for therapy and/or diagnostics” (THERALASE TECHNOLOGIES, INC., priority 2016, dated 2019).

Experiment: Singlet oxygen generation (SOG fluorescence) under red light after X-ray exposure
Assay type: physicochemical
Details: 500 μM; red light (625 nm) irradiation without or with prior X-ray (5 or 20 Gy)

Ru(4,4′-dimethyl-2,2′-bipyridine)2Cl2 [TLD1433]
Singlet oxygen generation (SOG fluorescence): accelerated singlet oxygen generation
